From patent publication US20090010998A1 (priority 2007, published 2009)

Test system: skin
Conditions: after 24 hours

## CCN(CC)CC(=O)Nc1c(C)cccc1C [^14C-lidocaine]
  lidocaine remained in the patch: < 3%
